For at least one compound, name, drawing or mass did not settle the structure.
Legend:
Format in all cases: in vivo, human
[1] = system: individuals; test: Psychostimulant effect: self-rated wakefulness/alertness before and one hour after administration (Example 1); settings: standardized 40% extract; 100 mg twice daily
Method: The forskolin was administered one hour after waking and one hour before bedtime. Subjects were asked to evaluate their level of wakefulness/alertness on a scale of 1 to 10 (10 being the greatest) both before administration and one hour after administration. […] All of the subjects perceived an increase in their level of wakefulness/alertness both in the morning and in the evening. These times were chosen due to the fact that most people have a greater degree of sleepiness or a greater degree of having problems with mental alertness during these times of the day.

[2] = system: overweight individuals who claimed to have a problem controlling their appetite; test: Appetite suppression: self-rated level of appetite before and after administration (Example 2); settings: 100 mg sixty minutes before meals, three times per day
Method: The forskolin was administered three times per day for five days. Subjects were asked to evaluate the level of their appetite from a scale of 1 to 10 (10 being the greatest). […] Some of the subjects even reported that they felt no desire to eat within 30 minutes after administration even though before administration they felt “extremely hungry”.

[3] = system: Test subjects; test: Experimenting with higher daily dosages: psychostimulant effect in test subjects
Method: While experimenting with forskolin in much higher daily dosages, the inventors discovered new and as yet undiscovered uses for forskolin and Coleus forskohli and its extracts. The novel effects became quite evident and noticeable upon administering 150 mg per day of forskolin in the form of a 20% Coleus forskohli extract. […] The dosages of forskolin that precipitate the best psychostimlant properties seem to be above 100 mg but can be below this level for some highly sensitive people.

[4] = system: humans; test: Test of forskolin as anorectic agent in humans; settings: dosages that cause psychostimulation
Method: Because nearly all psychostimulants have been or are being used as extremely effective appetite suppressants, the inventors decided to test the hypothesis that forskolin would be an effective anorectic agent. […] This anorectic effect is dose dependent and works increasingly until the dosage of 500 mg per day of forskolin. Most tested individuals noticed the appetite suppression effects above 75 mg per day of forskolin; however, a few individuals noticed slight effects down to 30 mg per day.

## C=C[C@@]1(C)CC(=O)[C@]2(O)[C@@]3(C)[C@@H](O)CCC(C)(C)[C@@H]3[C@H](O)[C@H](OC(C)=O)[C@@]2(C)O1 [forskolin, Forskolin]
[1]
  psychostimulant effect, summary of Example 1: profound psychostimulant effect
[2]
  change of the subjects' appetite, summary of Example 2: profound decrease
[3]; 150 mg per day of forskolin as a 20% Coleus forskohli extract
  psychostimulant effect (perceived energy levels, wakefulness and alertness): definite psychostimulant effect
[3]; upon further investigation
  psychostimulant properties compared with caffeine: about as strong as caffeine
[4]
  appetite suppressant effect: potent appetite suppressant effect
